Results deposited as PubChem BioAssay AID1224830 (NIAID, 2016)
Aim: 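Genes whose knock-down alters the TNF-alpha reporter response to LPS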 (primary screen). Cells: human THP-1 monocytic leukaemia cells, TNF dual-luciferase reporter clone, PMA-differentiated to macrophage-like cells. Knock-down reagent: siRNA pool against human genes, 50 nM. Timing: LPS for 4 h, given about 3 days after siRNA transfection. Treatment: bacterial LPS (TLR4 ligand), 10 ng/ml. Read-out: 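TNF firefly reporter luminescence divided by renilla, normalised to the plate median, then turned into a robust z-score for each replicate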. Direction: TNF reporter robust z-score: higher = stronger TNF reporter response to LPS. Call rule: 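Each well counts as active if its z-score is over 2.8 or under -1.5; controls are left without a call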.
Shown is an unselected part of about 18,000 reagents tested. About 2,900 of them (16%) were called active. 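Calls are made per well; low scores hint the gene aids the LPS response, high scores that it dampens it.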 A number with no mark means an inactive call. Repeated entries: four replicate wells of each siRNA pool.

Knock-down of DHPS (GeneID 1725) gave: TNF reporter robust z-score 1.43. Against DHPS (GeneID 1725) the deposit lists TNF reporter robust z-score 3.06 (active). DHPS (GeneID 1725) showed TNF reporter robust z-score 2.03. With knock-down of DHPS (GeneID 1725), the record shows TNF reporter robust z-score 2.07. ZC3H11D (GeneID 160419) scored TNF reporter robust z-score 1.85. Against ZC3H11D (GeneID 160419), the entry reads TNF reporter robust z-score 0.96.

With knock-down of ZC3H11D (GeneID 160419), the record shows TNF reporter robust z-score -0.03. ZC3H11D (GeneID 160419) showed TNF reporter robust z-score 1.86. H2AB1 (GeneID 474382) gave TNF reporter robust z-score -0.95. H2AB1 (GeneID 474382) scored TNF reporter robust z-score -0.31. H2AB1 (GeneID 474382) gave TNF reporter robust z-score -0.75. Knock-down of H2AB1 (GeneID 474382) came out at: TNF reporter robust z-score 0.26.

After knock-down of MED20 (GeneID 9477) the results were TNF reporter robust z-score -1.11. For MED20 (GeneID 9477) the deposit lists TNF reporter robust z-score 0.17. For MED20 (GeneID 9477), the values are TNF reporter robust z-score 0.14. MED20 (GeneID 9477) scored TNF reporter robust z-score 0.51. Silencing of SLURP1 (GeneID 57152) came out at: TNF reporter robust z-score 0.52. Against SLURP1 (GeneID 57152) the deposit lists TNF reporter robust z-score 0.91.

With knock-down of SLURP1 (GeneID 57152), the screen gave TNF reporter robust z-score 0.68. SLURP1 (GeneID 57152) gave TNF reporter robust z-score 1.47. Knock-down of FLVCR1 (GeneID 28982) resulted in: TNF reporter robust z-score -0.03. After knock-down of FLVCR1 (GeneID 28982) the results were TNF reporter robust z-score -0.2. FLVCR1 (GeneID 28982) showed TNF reporter robust z-score 0.17. For FLVCR1 (GeneID 28982), the entry reads TNF reporter robust z-score 0.25.

OR51B2 (GeneID 79345) gave TNF reporter robust z-score -0.8. Against OR51B2 (GeneID 79345), the values are TNF reporter robust z-score -1.49. OR51B2 (GeneID 79345) showed TNF reporter robust z-score -0.76. Knock-down of OR51B2 (GeneID 79345) resulted in: TNF reporter robust z-score -0.65. Against NLRP10 (GeneID 338322) the deposit lists TNF reporter robust z-score 0.6. With knock-down of NLRP10 (GeneID 338322) the results were TNF reporter robust z-score 1.04.

NLRP10 (GeneID 338322) scored TNF reporter robust z-score 0.19. Against NLRP10 (GeneID 338322) the deposit lists TNF reporter robust z-score 0.87.
